Source: PubChem BioAssay AID686943 (Drosophila RNAi Screening Center, 2013)

Test: 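Fly genes whose loss alters ERK activation after insulin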 (primary screen)
Cells: Drosophila S2R+ haemocyte-like cells expressing YFP-tagged ERK (Rolled)
Knock-down reagent: long dsRNA against Drosophila genes
Conditions: insulin stimulation versus unstimulated cells; dose and duration not given
Measurement: 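Antibody staining for doubly phosphorylated ERK divided by ERK-YFP signal, as plate z-scores, in insulin-treated and untreated cells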
Direction: replicate 1, z-score of dpERK with insulin and replicate 2, z-score of dpERK with insulin: higher = more active ERK per ERK-YFP after insulin; replicate 1, z-score of dpERK under basal conditions: higher = more basal active ERK per ERK-YFP; replicate 1, z-score of ERK-YFP with insulin: higher = more YFP-tagged ERK signal
The screen tested about 23,000 reagents; this is an unselected part of those with a known target gene and a result. 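Extra replicates exist only for a retested subset of genes; insulin dose and duration not given; both raised and lowered dpERK matter.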 Not given: the amount of reagent, the time to read-out.

predicted target	PubChem SID	replicate 1, z-score of dpERK with insulin	replicate 2, z-score of dpERK with insulin	replicate 1, z-score of dpERK under basal conditions	replicate 1, z-score of ERK-YFP with insulin
CG8303	SID104186932	-0.35	-0.05	-0.25	-0.05
CG9757	SID104196349	1.72	0.49	-1.3	-0.49
CG9757	SID104201383	-1.01	-0.7	0.24	-0.62
CG3368	SID104195277	-0.16	-0.01	0.28	-1.82
CG33483	SID104193811	0.13	-0.3	-0.76	-0.47
CG12826	SID104185967	-1.27	-0.86	-0.04	0.25
Dlish	SID104185808	0.61	0.99	0.11	0.18
nmo	SID104188694	0.47	0.39	0.08	0.82
nmo	SID104191169	-1.52	-1.13	-0.29	0.26
CG8547	SID104187003	0.46	-0.01	0.64	0.19
Cpr78Ca	SID104191443	-0.48	0.16	-0.22	0.69
zld	SID104199278	0.97	-0.92	1.78	0.43
zld	SID104201393	-1.37	-1.77	-0.88	-0.45
CG6290	SID104199771	0.15	0.23	0.72	0.05
Targ2	SID104201580	0.06	-1.05	1.35	0.5
Eig71Ec	SID104190942	1.09	0.55	-0.45	-0.27
CG3301	SID104195263	0.22	-0.21	-0.18	-0.36
ssp5	SID104194747	0.96	0.41	-0.24	-0.52
Pk34A	SID104183190	-0.26	0	0.12	0.36
CG10086	SID104193975	0.28	1.06	-1.25	-0.62
Echs1	SID104186791	0.16	-0.02	0.04	0.41
Art3	SID104195857	0.08	-0.02	0.41	-0.19
kek5	SID104199230	-0.23	0.12	-0.03	0.73

Already shown: an excerpt of the list.
predicted target	PubChem SID	replicate 1, z-score of dpERK with insulin	replicate 2, z-score of dpERK with insulin	replicate 1, z-score of dpERK under basal conditions	replicate 1, z-score of ERK-YFP with insulin
zld	SID104201393	-1.37	-1.77	-0.88	-0.45
CG6290	SID104199771	0.15	0.23	0.72	0.05
